Here are results for 1 substance from paper PMC12375107 (Cell Death & Disease, 2025).

For the test, the target named is T1, Flag-tagged CAD (caspase-activated DNase) (human) (UniProt O76075).
T1 sequence: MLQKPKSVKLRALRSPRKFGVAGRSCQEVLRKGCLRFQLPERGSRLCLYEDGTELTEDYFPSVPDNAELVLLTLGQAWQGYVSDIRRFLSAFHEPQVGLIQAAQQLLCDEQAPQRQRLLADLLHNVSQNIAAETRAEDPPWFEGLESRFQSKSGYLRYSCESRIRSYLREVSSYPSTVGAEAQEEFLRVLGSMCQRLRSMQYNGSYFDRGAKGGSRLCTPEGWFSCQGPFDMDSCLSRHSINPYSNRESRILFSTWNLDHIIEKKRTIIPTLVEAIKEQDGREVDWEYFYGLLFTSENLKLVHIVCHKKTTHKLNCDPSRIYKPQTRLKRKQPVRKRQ
The test can be described thus: co-IP; exogenous (transfected) proteins in lysates of HEK293T, HCT116 or HT29 cells; IP lysis buffer 25 mM HEPES, 150 mM NaCl, 1 mM EDTA, 1% NP-40, 10% glycerol, pH 7.4; antibody against Flag, MYC or HA, Protein A/G magnetic beads; western blotting.

These are yes or no findings as the source states them, for the method shown. Binding seen in cells or lysates may run through a third protein. Binding can be weak; no strength is given. Where a sequence is shown, tags or fusion partners need not be part of it.

Take ICAD-NTD (domain or fragment): the binding entry is recorded as “binds”.
